# Test results taken from paper PMC7950270.
# Protein sequences, listed by entry. Tags and fused reporters are not part of them. Residues count along the entry.
# UniProt O00206, residues 24-839: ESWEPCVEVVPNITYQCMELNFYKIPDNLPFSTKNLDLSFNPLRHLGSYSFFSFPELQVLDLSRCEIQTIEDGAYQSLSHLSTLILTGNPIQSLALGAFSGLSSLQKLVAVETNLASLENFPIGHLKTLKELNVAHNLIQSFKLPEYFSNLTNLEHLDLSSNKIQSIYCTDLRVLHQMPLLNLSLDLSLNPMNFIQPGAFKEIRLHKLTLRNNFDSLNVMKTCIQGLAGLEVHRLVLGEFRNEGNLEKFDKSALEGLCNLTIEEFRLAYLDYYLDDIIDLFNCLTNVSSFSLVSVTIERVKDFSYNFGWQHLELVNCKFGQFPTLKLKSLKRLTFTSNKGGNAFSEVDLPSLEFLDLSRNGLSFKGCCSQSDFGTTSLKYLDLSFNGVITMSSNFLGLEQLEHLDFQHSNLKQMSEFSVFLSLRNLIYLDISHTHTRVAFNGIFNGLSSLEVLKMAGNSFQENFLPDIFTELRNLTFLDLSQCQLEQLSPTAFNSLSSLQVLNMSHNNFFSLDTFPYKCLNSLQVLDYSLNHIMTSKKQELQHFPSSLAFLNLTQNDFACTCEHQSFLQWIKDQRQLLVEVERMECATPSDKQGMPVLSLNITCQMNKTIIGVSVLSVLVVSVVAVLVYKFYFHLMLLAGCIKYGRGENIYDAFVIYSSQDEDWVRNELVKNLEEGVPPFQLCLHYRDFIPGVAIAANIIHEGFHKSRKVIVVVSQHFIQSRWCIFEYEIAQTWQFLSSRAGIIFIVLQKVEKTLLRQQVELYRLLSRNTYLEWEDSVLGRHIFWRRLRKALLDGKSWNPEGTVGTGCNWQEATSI
# Results are given in words; binding and its absence hold for the method and conditions named. Binding seen in cells or lysates may run through a third protein. Some entries that bind do so weakly or less than the wild type.
# B1: myeloid differentiation protein-2 (protein, UniProt Q9Y6Y9 19-160)
# chain: QKQYWVCNSSDASISYTYCDKMQYPISINVNPCIELKRSKGLLHIFYIPRRDLKQLYFNLYITVNTMNLPKRKEVICRGSDDDYSFCRALKGETVNTTISFSFKGIKFSKGKYKCVVEAISGSPEEMLFCLEFVILHQPNSN
# Biological target: Toll-like receptor 4 (human (endogenous in primary OA chondrocytes)) (UniProt O00206)
# Assay: co-IP; lysate of primary human OA chondrocytes incubated with anti-TLR4 antibody, G-sepharose beads at 4 C overnight, MD-2 detected by immunoblot; cells untreated, treated with LPS (1 ug/mL, 2 h), with Linarin pretreatment plus LPS, or with Linarin alone
binder,measurement,value
B1,binding,binds
